In this test the test system is HT29 colon cancer cells. The test is described as follows: 72 h MTT proliferation assay, equipotent fixed-ratio combination, isobologram analysis (Calcusyn). Particulars: Homo sapiens. The test is classed as cell-based. From the text:
Erlotinib is an inhibitor of the epidermal growth factor receptor and is indicated for the treatment of patients with locally advanced or metastatic non-small cell lung cancer after failure of at least one prior chemotherapy regimen, and is indicated for the first-line treatment of patients with locally advanced, unresectable or metastatic pancreatic cancer.
Gefitinib is an inhibitor of the EGF receptor.

Where two headings read alike, the source gives them in different places.

In US9642847B2, “Combinational compositions and methods for treatment of cancer” (ArQule, Inc., priority 2009, dated 2017) one finds IC50 data, which are given here for one molecule.

The IC50 is the midpoint of a concentration-inhibition curve.

For the molecule `Cc1ccc(NC(=O)c2ccc(CN3CCN(C)CC3)cc2)cc1Nc1nccc(-c2cccnc2)n1` [Imatinib, imatinib], the IC50 was 7.37 µM (HT-29, 72 h, HT29, 72 h, single agents and fixed-ratio combination, read-out: IC50); approximately 10 µM (HT-29, HT29 cells, predicted value used to set the ratio, read-out: IC50, predicted).
